Publication PMC5513536
No constants are given. Whether binding was seen depends on the method and setting. In cells and extracts the contact can be indirect. Some binding calls cover weakened binding; strength is not graded here. Tags and fused reporters may be left off the sequences shown.

Chains of the proteins cited; added tags and fusions are not shown. Lines headed by an entry give the natural chain unless they say otherwise; changes in a name come on top. A line that says so, or that is headed by a name, gives the form on record, which may keep a tag or linker. Residues count along the entry.
UniProt O14744: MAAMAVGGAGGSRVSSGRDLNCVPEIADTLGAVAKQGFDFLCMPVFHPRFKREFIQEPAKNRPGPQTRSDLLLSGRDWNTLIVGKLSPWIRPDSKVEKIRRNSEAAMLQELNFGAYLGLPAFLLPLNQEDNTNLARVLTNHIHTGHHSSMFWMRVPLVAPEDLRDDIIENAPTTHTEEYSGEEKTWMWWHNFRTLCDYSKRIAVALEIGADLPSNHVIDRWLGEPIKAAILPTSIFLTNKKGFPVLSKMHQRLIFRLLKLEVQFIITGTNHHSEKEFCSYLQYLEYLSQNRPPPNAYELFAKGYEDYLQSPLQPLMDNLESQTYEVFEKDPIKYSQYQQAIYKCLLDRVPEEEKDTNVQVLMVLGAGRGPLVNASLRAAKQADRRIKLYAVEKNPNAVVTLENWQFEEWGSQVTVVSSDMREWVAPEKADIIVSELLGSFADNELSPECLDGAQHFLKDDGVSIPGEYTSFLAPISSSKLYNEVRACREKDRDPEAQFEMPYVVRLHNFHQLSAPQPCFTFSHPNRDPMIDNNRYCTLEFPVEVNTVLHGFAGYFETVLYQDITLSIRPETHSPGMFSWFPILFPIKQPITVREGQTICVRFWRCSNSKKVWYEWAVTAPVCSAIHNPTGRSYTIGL
Flag-tagged PRMT5 210-420aa: residues 210-420 of O14744

What was measured:
[1] = molecular target: T1, ORF59-Flag (KSHV (human herpesvirus 8)) (UniProt F5HID2); assay: co-IP
T1 sequence: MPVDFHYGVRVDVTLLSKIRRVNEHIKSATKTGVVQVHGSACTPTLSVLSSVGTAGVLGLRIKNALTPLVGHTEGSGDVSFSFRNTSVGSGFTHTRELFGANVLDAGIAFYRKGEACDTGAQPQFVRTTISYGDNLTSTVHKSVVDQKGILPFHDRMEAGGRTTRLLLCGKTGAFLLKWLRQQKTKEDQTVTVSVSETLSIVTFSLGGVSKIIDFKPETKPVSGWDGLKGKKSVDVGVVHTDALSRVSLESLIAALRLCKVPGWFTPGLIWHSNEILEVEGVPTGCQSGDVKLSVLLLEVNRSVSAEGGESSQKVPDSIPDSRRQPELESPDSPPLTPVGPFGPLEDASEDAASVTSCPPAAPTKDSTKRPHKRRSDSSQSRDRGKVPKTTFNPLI

[2] = molecular target: Flag-tagged PRMT5 210-420aa (human) (UniProt O14744); assay: co-IP

Molecule | binding [1] | binding [2]
PRMT5-Myc (from UniProt O14744 1-637) | binds | –
ORF59-HA (protein, UniProt F5HID2 1-396) MPVDFHYGVRVDVTLLSKIRRVNEHIKSATKTGVVQVHGSACTPTLSVLSSVGTAGVLGLRIKNALTPLVGHTEGSGDVSFSFRNTSVGSGFTHTRELFGANVLDAGIAFYRKGEACDTGAQPQFVRTTISYGDNLTSTVHKSVVDQKGILPFHDRMEAGGRTTRLLLCGKTGAFLLKWLRQQKTKEDQTVTVSVSETLSIVTFSLGGVSKIIDFKPETKPVSGWDGLKGKKSVDVGVVHTDALSRVSLESLIAALRLCKVPGWFTPGLIWHSNEILEVEGVPTGCQSGDVKLSVLLLEVNRSVSAEGGESSQKVPDSIPDSRRQPELESPDSPPLTPVGPFGPLEDASEDAASVTSCPPAAPTKDSTKRPHKRRSDSSQSRDRGKVPKTTFNPLI | – | binds
